From patent publication US7696245B2, “Fluorescent probe for zinc” (Sekisui Medical Co., Ltd., priority 2003, dated 2010)

Experiment: Selectivity for zinc ions: fluorescence intensity in the presence of various metal ions
Assay type: physicochemical
Conditions: metal ions at high concentration (5 mM), 100 mM HEPES buffer (pH 7.5)
Method: Compounds 8, 13, 17, and 22 were used to evaluate selectivity for zinc ions. 1 μM of the compound was added in 100 mM HEPES buffer (pH 7.5) containing various metal ions (1 μM or 5 μM). The fluorescence intensity was measured at the excitation wavelength of 492 nm and the fluorescence wavelength of 514 nm for Compounds 8, 17, and 22, and the excitation wavelength of 492 nm and the fluorescence wavelength of 521 nm for Compound 13.

Structure (SMILES) | increase in fluorescence intensity in the presence of sodium, potassium, calcium and magnesium ions
O=C(O)c1ccc(NCCNCc2ccccn2)cc1-c1c2ccc(=O)cc-2oc2cc(O)ccc12 [Compound 8] | absolutely no increase
O=C(O)c1ccc(NCCN(CCc2ccccn2)Cc2ccccn2)cc1-c1c2ccc(=O)cc-2oc2cc(O)ccc12 [Compound 13] | absolutely no increase
O=C(O)c1ccc(NCCN(CCc2ccccn2)CCc2ccccn2)cc1-c1c2ccc(=O)cc-2oc2cc(O)ccc12 [Compound 17] | absolutely no increase
Cc1cccc(CN(CCNc2ccc(C(=O)O)c(-c3c4ccc(=O)cc-4oc4cc(O)ccc34)c2)Cc2ccccn2)n1 [Compound 22] | absolutely no increase
